Data reported in patent publication US20200062738A1, “ANTI-CANCER STEMNESS DRUGS” (Development Center for Biotechnology, priority 2017, published 2020).
At least one structure is not confirmed: it was looked up by name or label, or the drawing left a doubt.

Test system: H1975-luc cells
Test: Orthotopic H1975-luc model, treatment starting 2 days after tumor implantation (FIG. 4)
Format: in vivo, mice
Settings: Afatinib 20 mpk orally, days 14 and 28
Excerpt: (§1) Mice were orthotopically implanted with H1975-luc cells (10^6 cells/mouse). On day 0 (defined as 2 days after tumor implantation), mice were given drug treatments for 4 weeks (5 times/week), and the tumor formations were followed by non-invasive imaging on days 14 and 28.
The mouse cancer models were generated as described above. Orthotopic H1975-Luc model was described as previous study. BI-44 was administrated by IV injection through tail vein, 5 times/7 days, with the doses indicated on the figure. Gefitinib and Afatinib were administrated orally, 5 times/7 days, with the dose of 20 mpk (mg/Kg).
as §1, with “In the first animal model, Mice” for “Mice”, “were started to receive” for “were given”, “on day” for “on days”
BI-44 was administrated starting 2 days after orthotopic lung tumor implantation according to the administration scheme shown in FIG. 4A, and the tumor formations were evaluated via non-invasive bioluminescent imaging on days 14 and 28.

## CN(C)C/C=C/C(=O)Nc1cc2c(Nc3ccc(F)c(Cl)c3)ncnc2cc1O[C@H]1CCOC1 [Afatinib, reference compound]
  bioluminescent intensities in mice lungs: significantly reduced bioluminescent intensities
